Data as given in PubChem BioAssay AID1259254 (NCATS, 2017)
Here is one part, drawn at random, of about 59,000 reagents tested. Over the whole deposit, about 1,550 (2.6%) got an active call. 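G2 share is only a proxy for re-replication; each gene was hit by three separate siRNAs, and active genes were retested.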 A number with no mark means an inactive call. Reagents against one gene are numbered here. Not all columns of the deposit are shown. The record does not give: the amount of reagent.

Aim: 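Gene knock-downs that lead to re-replication, shown by excess G2 DNA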 (primary screen)
Cells: human HCT116 colorectal cancer cells
Reagents: single siRNA against human genes
Timing: 3 days
Measurement: 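Imaged Hoechst DNA stain sorts each cell into a cycle phase by DNA amount; per plate, G2 fraction set to 0% for non-targeting and 100% for GMNN siRNA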
Scale: G2 robust z-score: higher = more G2 cells, more excess DNA replication
Rule for the call: 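Active siRNAs have a G2 robust z of 5 or more median absolute deviations over the median, which in these data means about 38% or higher of GMNN control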

G2 robust z-score, by gene knocked down and reagent
ZNRF1: #1 -0.076; #2 -0.554; #3 -0.0964
BMAL2: #1 -0.524; #2 5.28 (active); #3 1.4
PTK2: #1 6.16 (active); #2 -0.515; #3 0.177
NDUFS7: #1 -0.507; #2 0.0955; #3 2.19
OR5F1: #1 4.37; #2 -0.56; #3 -0.206
TMEM167B: #1 3.7; #2 0.396; #3 1.51
BAZ1B: #1 -1.02; #2 -1.6; #3 3.84
ITGB5: #1 15.1 (active); #2 17.2 (active); #3 10.4 (active)
TRIM16: #1 -0.0954; #2 1.82; #3 0.0456
RSRC2: #1 0.0722; #2 -1.29; #3 -0.927
C1orf167: #1 -0.694; #2 1.82; #3 -1.11
DEDD2: #1 0.234; #2 2.08; #3 -0.447
SAMD9: #1 -0.335; #2 1.28; #3 0.829
MISO1: #1 0.42; #2 6.78 (active); #3 2.59
PHYH: #1 0.187; #2 0.331; #3 -0.843

A few values from above:
For “G2 robust z-score”, ITGB5 #1 reads 15.1 (active)
C1orf167 #1, G2 robust z-score: -0.694
Result of BAZ1B #3 under “G2 robust z-score”: 3.84
Result for NDUFS7 #3 in “G2 robust z-score”: 2.19
Entry for TRIM16 #1 under “G2 robust z-score”: -0.0954

More results follow.
G2 robust z-score, by gene knocked down and reagent
PRR11: #1 0.628; #2 -0.651; #3 -0.193
MXRA7: #1 -0.356; #2 -0.213; #3 0.942
RNF144A: #1 -0.603; #2 -1.14; #3 -0.157
INPP4A: #1 2.06; #2 0.0282; #3 -0.412
LINC02897: #1 -0.455; #2 -1.06; #3 -0.346
PPM1F: #1 0.172; #2 -0.45; #3 5.6 (active)
GPATCH11P1: #1 3.73; #2 1.45; #3 0.462
PIK3C2G: #1 -0.653; #2 4; #3 -0.925
